Data from paper PMC6639074.
These are yes or no findings as the source states them, for the method shown. Binding seen in cells or lysates may run through a third protein. Here binding means that the protein was enriched with, or labelled near, the bait; the list need not be complete. For part of these data: Tags and fused reporters may be left off the sequences shown.

The chains behind the UniProt entries cited, without tags or fusion partners. Where a name states a change or a piece, a line headed by the entry shows the natural chain unless it says otherwise.
UniProt P61006: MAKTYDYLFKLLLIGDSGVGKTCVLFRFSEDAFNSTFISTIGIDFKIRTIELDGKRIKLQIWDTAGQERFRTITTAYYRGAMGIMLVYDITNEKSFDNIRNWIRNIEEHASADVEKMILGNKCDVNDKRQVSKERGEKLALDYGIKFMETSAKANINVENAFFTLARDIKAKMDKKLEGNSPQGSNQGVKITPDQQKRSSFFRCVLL
UniProt Q9H082: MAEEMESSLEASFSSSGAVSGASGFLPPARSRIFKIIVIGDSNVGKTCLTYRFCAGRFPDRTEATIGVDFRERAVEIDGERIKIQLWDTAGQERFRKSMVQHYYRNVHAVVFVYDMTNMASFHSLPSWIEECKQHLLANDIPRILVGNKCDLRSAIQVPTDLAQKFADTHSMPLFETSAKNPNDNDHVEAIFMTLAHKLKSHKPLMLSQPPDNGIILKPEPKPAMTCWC
UniProt Q9NP72: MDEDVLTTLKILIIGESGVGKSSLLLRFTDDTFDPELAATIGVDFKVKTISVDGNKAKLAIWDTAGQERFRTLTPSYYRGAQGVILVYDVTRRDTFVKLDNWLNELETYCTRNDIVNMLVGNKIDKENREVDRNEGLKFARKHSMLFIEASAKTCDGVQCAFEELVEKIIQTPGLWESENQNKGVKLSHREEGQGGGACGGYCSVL

T1: RalB(G23V)-BirA*-HA-MAO (human) (UniProt P11234)
T1 sequence: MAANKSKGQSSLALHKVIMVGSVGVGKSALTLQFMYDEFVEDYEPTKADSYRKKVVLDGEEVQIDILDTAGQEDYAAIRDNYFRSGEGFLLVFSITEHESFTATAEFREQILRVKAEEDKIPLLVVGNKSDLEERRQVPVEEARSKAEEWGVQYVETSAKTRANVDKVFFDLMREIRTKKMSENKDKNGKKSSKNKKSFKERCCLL


Assays:
Assay in all cases: proximity labelling; MitoID: GTPase-BirA*-HA-MAO chimera on mitochondria of transiently transfected HEK293T cells, 50 uM biotin 18 h, streptavidin beads, mass spectrometry, biological triplicates; hits by WD scores and volcano plots against the GDP-locked forms
[1] = target: Rab8A(Q67L)-BirA*-HA-MAO (human) (UniProt P61006)
[2] = target: Rab33B(Q92L)-BirA*-HA-MAO (human) (UniProt Q9H082)
[3] = target: T1, RalB(G23V)-BirA*-HA-MAO (human)
[4] = target: Rab18(Q67L)-BirA*-HA-MAO (human) (UniProt Q9NP72)

Row | binding [2] | binding [3] | Binder | also measured
1 |  |  | synaptotagmin-like 4 (SYTL4) (protein, UniProt Q96C24 1-671) MSELLDLSFLSEEEKDLILSVLQRDEEVRKADEKRIRRLKNELLEIKRKGAKRGSQHYSDRTCARCQESLGRLSPKTNTCRGCNHLVCRDCRIQESNGTWRCKVCAKEIELKKATGDWFYDQKVNRFAYRTGSEIIRMSLRHKPAVSKRETVGQSLLHQTQMGDIWPGRKIIQERQKEPSVLFEVPKLKSGKSALEAESESLDSFTADSDSTSRRDSLDKSGLFPEWKKMSAPKSQVEKETQPGGQNVVFVDEGEMIFKKNTRKILRPSEYTKSVIDLRPEDVVHESGSLGDRSKSVPGLNVDMEEEEEEEDIDHLVKLHRQKLARSSMQSGSSMSTIGSMMSIYSEAGDFGNIFVTGRIAFSLKYEQQTQSLVVHVKECHQLAYADEAKKRSNPYVKTYLLPDKSRQGKRKTSIKRDTINPLYDETLRYEIPESLLAQRTLQFSVWHHGRFGRNTFLGEAEIQMDSWKLDKKLDHCLPLHGKISAESPTGLPSHKGELVVSLKYIPASKTPVGGDRKKSKGGEGGELQVWIKEAKNLTAAKAGGTSDSFVKGYLLPMRNKASKRKTPVMKKTLNPHYNHTFVYNGVRLEDLQHMCLELTVWDREPLASNDFLGGVRLGVGTGISNGEVVDWMDSTGEEVSLWQKMRQYPGSWAEGTLQLRSSMAKQKLGL | binding [1]: binds
2 | binds |  | RUFY3 (protein, UniProt Q7L099 1-469) MSALTPPTDMPTPTTDKITQAAMETIYLCKFRVSMDGEWLCLRELDDISLTPDPEPTHEDPNYLMANERMNLMNMAKLSIKGLIESALNLGRTLDSDYAPLQQFFVVMEHCLKHGLKAKKTFLGQNKSFWGPLELVEKLVPEAAEITASVKDLPGLKTPVGRGRAWLRLALMQKKLSEYMKALINKKELLSEFYEPNALMMEEEGAIIAGLLVGLNVIDANFCMKGEDLDSQVGVIDFSMYLKDGNSSKGTEGDGQITAILDQKNYVEELNRHLNATVNNLQAKVDALEKSNTKLTEELAVANNRIITLQEEMERVKEESSYILESNRKGPKQDRTAEGQALSEARKHLKEETQLRLDVEKELEMQISMRQEMELAMKMLEKDVCEKQDALVSLRQQLDDLRALKHELAFKLQSSDLGVKQKSELNSRLEEKTNQMAATIKQLEQSEKDLVKQAKTLNSAANKLIPKHH | 
3 | binds |  | Rabaptin-5 (protein, UniProt Q15276 1-862) MAQPGPASQPDVSLQQRVAELEKINAEFLRAQQQLEQEFNQKRAKFKELYLAKEEDLKRQNAVLQAAQDDLGHLRTQLWEAQAEMENIKAIATVSENTKQEAIDEVKRQWREEVASLQAVMKETVRDYEHQFHLRLEQERTQWAQYRESAEREIADLRRRLSEGQEEENLENEMKKAQEDAEKLRSVVMPMEKEIAALKDKLTEAEDKIKELEASKVKELNHYLEAEKSCRTDLEMYVAVLNTQKSVLQEDAEKLRKELHEVCHLLEQERQQHNQLKHTWQKANDQFLESQRLLMRDMQRMEIVLTSEQLRQVEELKKKDQEDDEQQRLNKRKDHKKADVEEEIKIPVVCALTQEESSAQLSNEEEHLDSTRGSVHSLDAGLLLPSGDPFSKSDNDMFKDGLRRAQSTDSLGTSGSLQSKALGYNYKAKSAGNLDESDFGPLVGADSVSENFDTASLGSLQMPSGFMLTKDQERAIKAMTPEQEETASLLSSVTQGMESAYVSPSGYRLVSETEWNLLQKEVHNAGNKLGRRCDMCSNYEKQLQGIQIQEAETRDQVKKLQLMLRQANDQLEKTMKDKQELEDFIKQSSEDSSHQISALVLRAQASEILLEELQQGLSQAKRDVQEQMAVLMQSREQVSEELVRLQKDNDSLQGKHSLHVSLQQAEDFILPDTTEALRELVLKYREDIINVRTAADHVEEKLKAEILFLKEQIQAEQCLKENLEETLQLEIENCKEEIASISSLKAELERIKVEKGQLESTLREKSQQLESLQEIKISLEEQLKKETAAKATVEQLMFEEKNKAQRLQTELDVSEQVQRDFVKLSQTLQVQLERIRQADSLERIRAILNDTKLTDINQLPET | 
4 |  | binds | REPS1/Reps1 (protein, UniProt Q96D71 1-796) MEGLTLSDAEQKYYSDLFSYCDIESTKKVVVNGRVLELFRAAQLPNDVVLQIMELCGATRLGYFGRSQFYIALKLVAVAQSGFPLRVESINTVKDLPLPRFVASKNEQESRHAASYSSDSENQGSYSGVIPPPPGRGQVKKGSVSHDTVQPRTSADAQEPASPVVSPQQSPPTSPHTWRKHSRHPSGGNSERPLAGPGPFWSPFGEAQSGSSAGDAVWSGHSPPPPQENWVSFADTPPTSTLLTMHPASVQDQTTVRTVASATTAIEIRRQSSSYDDPWKITDEQRQYYVNQFKTIQPDLNGFIPGSAAKEFFTKSKLPILELSHIWELSDFDKDGALTLDEFCAAFHLVVARKNGYDLPEKLPESLMPKLIDLEDSADVGDQPGEVGYSGSPAEAPPSKSPSMPSLNQTWPELNQSSEQWETFSERSSSSQTLTQFDSNIAPADPDTAIVHPVPIRMTPSKIHMQEMELKRTGSDHTNPTSPLLVKPSDLLEENKINSSVKFASGNTVADGYSSSDSFTSDPEQIGSNVTRQRSHSGTSPDNTAPPPPPPRPQPSHSRSSSLDMNRTFTVTTGQQQAGVVAHPPAVPPRPQPSQAPGPAVHRPVDADGLITHTSTSPQQIPEQPNFADFSQFEVFAASNVNDEQDDEAEKHPEVLPAEKASDPASSLRVAKTDSKTEEKTAASAPANVSKGTTPLAPPPKPVRRRLKSEDELRPEVDEHTQKTGVLAAVLASQPSIPRSVGKDKKAIQASIRRNKETNTVLARLNSELQQQLKDVLEERISLEVQLEQLRPFSHL | 
5 |  |  | SCFD2 (protein, UniProt Q8WU76 1-684) MSASGVLSFTQQGWEQVLAKVKRAVVYLDAACAESLHWGCGSTRLLEAVGGPDCHLREFEPDAIGGGAKQPKAVFVLSCLLKGRTVEILRDIICRSHFQYCVVVTTVSHAVHLTANHVPAAAAAEMEGQQPVFEQLEEKLCEWMGNMNYTAEVFHVPLLLAPVAPHFALTPAFASLFPLLPQDVHLLNSARPDKRKLGSLGDVDSTTLTPELLLQIRCLVSGLSSLCEHLGVREECFAVGSLSQVIAADLANYAPAKNRKKTAAGRASVVFVDRTLDLTGAVGHHGDNLVEKIISALPQLPGHTNDVMVNMIALTALHTEEENYNVVAPGCLSQSSDTTAKALWEALLNTKHKEAVMEVRRHLVEAASRENLPIKMSMGRVTPGQLMSYIQLFKNNLKALMNHCGLLQLGLATAQTLKHPQTAKWDNFLAFERLLLQSIGESAMSVVLNQLLPMIKPVTQRTNEDYSPEELLILLIYIYSVTGELTVDKDLCEAEEKVKKALAQVFCEESGLSPLLQKITDWDSSINLTFHKSKIAVDELFTSLRDIAGARSLLKQFKSVYVPGNHTHQASYKPLLKQVVEEIFHPERPDSVDIEHMSSGLTDLLKTGFSMFMKVSRPHPSDYPLLILFVVGGVTVSEVKMVKDLVASLKPGTQVIVLSTRLLKPLNIPELLFATDRLHPDLGF | binding [4]: binds
6 |  | binds | RALGAPB (protein, UniProt Q86X10 1-1494) MYSEWRSLHLVIQNDQGHTSVLHSYPESVGREVANAVVRPLGQVLGTPSVAGSENLLKTDKEVKWTMEVICYGLTLPLDGETVKYCVDVYTDWIMALVLPKDSIPLPVIKEPNQYVQTILKHLQNLFVPRQEQGSSQIRLCLQVLRAIQKLARESSLMARETWEVLLLFLLQINDILLAPPTVQGGIAENLAEKLIGVLFEVWLLACTRCFPTPPYWKTAKEMVANWRHHPAVVEQWSKVICALTSRLLRFTYGPSFPAFKVPDEDASLIPPEMDNECVAQTWFRFLHMLSNPVDLSNPAIISSTPKFQEQFLNVSGMPQELNQYPCLKHLPQIFFRAMRGISCLVDAFLGISRPRSDSAPPTPVNRLSMPQSAAVSTTPPHNRRHRAVTVNKATMKTSTVSTAHASKVQHQTSSTSPLSSPNQTSSEPRPLPAPRRPKVNSILNLFGSWLFDAAFVHCKLHNGINRDSSMTAITTQASMEFRRKGSQMSTDTMVSNPMFDASEFPDNYEAGRAEACGTLCRIFCSKKTGEEILPAYLSRFYMLLIQGLQINDYVCHPVLASVILNSPPLFCCDLKGIDVVVPYFISALETILPDRELSKFKSYVNPTELRRSSINILLSLLPLPHHFGTVKSEVVLEGKFSNDDSSSYDKPITFLSLKLRLVNILIGALQTETDPNNTQMILGAMLNIVQDSALLEAIGCQMEMGGGENNLKSHSRTNSGISSASGGSTEPTTPDSERPAQALLRDYALNTDSAAGLLIRSIHLVTQRLNSQWRQDMSISLAALELLSGLAKVKVMVDSGDRKRAISSVCTYIVYQCSRPAPLHSRDLHSMIVAAFQCLCVWLTEHPDMLDEKDCLKEVLEIVELGISGSKSKNNEQEVKYKGDKEPNPASMRVKDAAEATLTCIMQLLGAFPSPSGPASPCSLVNETTLIKYSRLPTINKHSFRYFVLDNSVILAMLEQPLGNEQNDFFPSVTVLVRGMSGRLAWAQQLCLLPRGAKANQKLFVPEPRPVPKNDVGFKYSVKHRPFPEEVDKIPFVKADLSIPDLHEIVTEELEERHEKLRSGMAQQIAYEIHLEQQSEEELQKRSFPDPVTDCKPPPPAQEFQTARLFLSHFGFLSLEALKEPANSRLPPHLIALDSTIPGFFDDIGYLDLLPCRPFDTVFIFYMKPGQKTNQEILKNVESSRTVQPHFLEFLLSLGWSVDVGRHPGWTGHVSTSWSINCCDDGEGSQQEVISSEDIGASIFNGQKKVLYYADALTEIAFVVPSPVESLTDSLESNISDQDSDSNMDLMPGILKQPSLTLELFPNHTDNLNSSQRLSPSSRMRKLPQGRPVPPLGPETRVSVVWVERYDDIENFPLSELMTEISTGVETTANSSTSLRSTTLEKEVPVIFIHPLNTGLFRIKIQGATGKFNMVIPLVDGMIVSRRALGFLVRQTVINICRRKRLESDSYSPPHVRRKQKITDIVNKYRNKQLEPEFYTSLFQEVGLKNCSS | 
